Results taken from article PMC6048318.
Results are given in words; binding and its absence hold for the method and conditions named. Binding seen in cells or lysates may run through a third protein. Some results given as binding are weak or reduced against the parent protein; the word gives no strength.

T1: TDP-1, the Caenorhabditis elegans ortholog of mammalian TDP-43 (C. elegans (endogenous in worm extract)) (UniProt D0VWM8)
T1 sequence: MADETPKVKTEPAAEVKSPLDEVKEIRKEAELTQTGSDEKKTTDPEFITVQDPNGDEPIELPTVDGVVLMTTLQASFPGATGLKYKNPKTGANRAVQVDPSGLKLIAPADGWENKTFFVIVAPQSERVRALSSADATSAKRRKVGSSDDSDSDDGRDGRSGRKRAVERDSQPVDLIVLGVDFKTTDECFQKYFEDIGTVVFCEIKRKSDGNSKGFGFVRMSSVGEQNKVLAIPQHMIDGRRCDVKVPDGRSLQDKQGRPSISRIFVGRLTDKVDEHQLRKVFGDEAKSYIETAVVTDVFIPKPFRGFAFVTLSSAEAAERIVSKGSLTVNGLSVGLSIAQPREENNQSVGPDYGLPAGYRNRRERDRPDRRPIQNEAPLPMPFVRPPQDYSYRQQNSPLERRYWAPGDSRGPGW

T2: HPL-2, the C. elegans heterochromatin protein 1 (HP1) homolog (C. elegans (endogenous in worm extract)) (UniProt G5EDE2)
T2 sequence: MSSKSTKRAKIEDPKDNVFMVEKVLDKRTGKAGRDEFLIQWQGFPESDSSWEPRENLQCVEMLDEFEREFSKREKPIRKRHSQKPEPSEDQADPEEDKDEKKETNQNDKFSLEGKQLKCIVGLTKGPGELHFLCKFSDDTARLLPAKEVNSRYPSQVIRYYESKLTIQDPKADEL

B1: HPL-2, the C. elegans heterochromatin protein 1 (HP1) homolog (protein, UniProt G5EDE2 1-175)
chain: T2 sequence
B2: TDP-1, the Caenorhabditis elegans ortholog of mammalian TDP-43 (protein, UniProt D0VWM8 1-414)
chain: T1 sequence

Tests used:
[1] = target: T1, TDP-1, the Caenorhabditis elegans ortholog of mammalian TDP-43 (C. elegans (endogenous in worm extract)); assay: co-IP; anti-TDP-1 antibody on protein A magnetic beads, 100 ug worm extract, 4°C 2 h; extract with or without RNase T1 and V1; wild-type and eri-1 mutant backgrounds; blot with anti-HPL-2
[2] = target: T2, HPL-2, the C. elegans heterochromatin protein 1 (HP1) homolog (C. elegans (endogenous in worm extract)); assay: co-IP; anti-HPL-2 antibody on protein A magnetic beads, 100 ug worm extract, 4°C 2 h; extract treated with RNase T1 and V1; blot with anti-TDP-1

Binder	binding [1]	binding [2]
B1	binds	
B2		binds
